Experimental data published in publication PMC12715200.
No constants are given. Whether binding was seen depends on the method and setting. In cells and extracts the contact can be indirect. Here binding means that the protein was enriched with, or labelled near, the bait; the list need not be complete. For some of these results: Sequences can lack the tags named with a protein.

Sequences of proteins named here, by UniProt entry; tags and fusion partners are left off.
UniProt Q8NC56: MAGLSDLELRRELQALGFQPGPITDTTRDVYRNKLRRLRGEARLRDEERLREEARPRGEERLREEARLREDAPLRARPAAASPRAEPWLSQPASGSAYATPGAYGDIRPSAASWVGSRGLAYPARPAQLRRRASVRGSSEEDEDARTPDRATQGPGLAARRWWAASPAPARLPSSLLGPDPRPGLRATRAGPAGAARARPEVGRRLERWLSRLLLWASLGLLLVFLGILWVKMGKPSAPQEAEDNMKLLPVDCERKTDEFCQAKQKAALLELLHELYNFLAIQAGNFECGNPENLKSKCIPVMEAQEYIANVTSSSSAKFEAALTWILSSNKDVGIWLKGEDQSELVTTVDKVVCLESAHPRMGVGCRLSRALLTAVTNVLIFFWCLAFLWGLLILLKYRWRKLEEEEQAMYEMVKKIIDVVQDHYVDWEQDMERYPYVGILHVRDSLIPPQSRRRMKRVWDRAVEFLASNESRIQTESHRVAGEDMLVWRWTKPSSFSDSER
UniProt Q02880: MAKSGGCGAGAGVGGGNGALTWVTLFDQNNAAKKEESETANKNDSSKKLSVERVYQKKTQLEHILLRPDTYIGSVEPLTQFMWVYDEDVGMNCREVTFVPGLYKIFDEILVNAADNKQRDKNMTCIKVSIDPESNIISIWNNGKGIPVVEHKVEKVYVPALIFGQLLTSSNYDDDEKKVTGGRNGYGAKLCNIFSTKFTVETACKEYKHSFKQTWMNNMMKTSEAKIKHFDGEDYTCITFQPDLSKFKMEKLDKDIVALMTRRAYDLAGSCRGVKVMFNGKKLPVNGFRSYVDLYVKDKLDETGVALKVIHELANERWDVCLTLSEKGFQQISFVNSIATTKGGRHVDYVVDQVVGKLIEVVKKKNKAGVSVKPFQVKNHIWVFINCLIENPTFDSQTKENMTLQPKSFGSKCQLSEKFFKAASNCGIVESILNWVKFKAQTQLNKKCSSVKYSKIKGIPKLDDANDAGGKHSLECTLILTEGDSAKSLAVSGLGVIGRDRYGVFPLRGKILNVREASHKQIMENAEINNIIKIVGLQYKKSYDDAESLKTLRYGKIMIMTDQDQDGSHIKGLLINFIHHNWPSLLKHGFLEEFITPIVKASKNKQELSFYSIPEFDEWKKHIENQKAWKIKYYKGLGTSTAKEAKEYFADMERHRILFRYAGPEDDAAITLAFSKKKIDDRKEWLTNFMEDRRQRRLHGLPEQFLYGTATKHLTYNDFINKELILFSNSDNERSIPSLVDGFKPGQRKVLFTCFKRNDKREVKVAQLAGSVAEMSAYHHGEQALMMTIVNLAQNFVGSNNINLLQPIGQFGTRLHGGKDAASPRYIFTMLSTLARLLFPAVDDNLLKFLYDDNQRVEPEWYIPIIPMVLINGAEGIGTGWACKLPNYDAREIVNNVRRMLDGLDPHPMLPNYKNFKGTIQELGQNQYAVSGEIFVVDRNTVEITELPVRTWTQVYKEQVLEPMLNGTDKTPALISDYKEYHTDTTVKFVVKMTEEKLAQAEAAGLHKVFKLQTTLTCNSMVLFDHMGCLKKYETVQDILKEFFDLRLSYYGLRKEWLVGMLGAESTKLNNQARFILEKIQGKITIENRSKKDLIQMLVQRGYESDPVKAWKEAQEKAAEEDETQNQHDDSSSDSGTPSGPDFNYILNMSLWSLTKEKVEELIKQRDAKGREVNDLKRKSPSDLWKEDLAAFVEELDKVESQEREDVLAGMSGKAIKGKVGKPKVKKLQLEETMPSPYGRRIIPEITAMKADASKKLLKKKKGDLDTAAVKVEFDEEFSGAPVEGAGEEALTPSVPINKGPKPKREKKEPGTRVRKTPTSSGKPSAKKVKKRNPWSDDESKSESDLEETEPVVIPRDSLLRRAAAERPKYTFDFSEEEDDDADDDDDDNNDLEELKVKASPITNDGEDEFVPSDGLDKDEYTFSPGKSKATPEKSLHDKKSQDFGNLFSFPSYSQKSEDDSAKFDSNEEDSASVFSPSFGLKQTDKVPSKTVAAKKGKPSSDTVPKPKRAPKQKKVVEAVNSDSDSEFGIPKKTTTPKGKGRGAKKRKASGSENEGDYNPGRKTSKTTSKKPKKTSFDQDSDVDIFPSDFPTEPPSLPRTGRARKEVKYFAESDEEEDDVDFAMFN
UniProt O95573: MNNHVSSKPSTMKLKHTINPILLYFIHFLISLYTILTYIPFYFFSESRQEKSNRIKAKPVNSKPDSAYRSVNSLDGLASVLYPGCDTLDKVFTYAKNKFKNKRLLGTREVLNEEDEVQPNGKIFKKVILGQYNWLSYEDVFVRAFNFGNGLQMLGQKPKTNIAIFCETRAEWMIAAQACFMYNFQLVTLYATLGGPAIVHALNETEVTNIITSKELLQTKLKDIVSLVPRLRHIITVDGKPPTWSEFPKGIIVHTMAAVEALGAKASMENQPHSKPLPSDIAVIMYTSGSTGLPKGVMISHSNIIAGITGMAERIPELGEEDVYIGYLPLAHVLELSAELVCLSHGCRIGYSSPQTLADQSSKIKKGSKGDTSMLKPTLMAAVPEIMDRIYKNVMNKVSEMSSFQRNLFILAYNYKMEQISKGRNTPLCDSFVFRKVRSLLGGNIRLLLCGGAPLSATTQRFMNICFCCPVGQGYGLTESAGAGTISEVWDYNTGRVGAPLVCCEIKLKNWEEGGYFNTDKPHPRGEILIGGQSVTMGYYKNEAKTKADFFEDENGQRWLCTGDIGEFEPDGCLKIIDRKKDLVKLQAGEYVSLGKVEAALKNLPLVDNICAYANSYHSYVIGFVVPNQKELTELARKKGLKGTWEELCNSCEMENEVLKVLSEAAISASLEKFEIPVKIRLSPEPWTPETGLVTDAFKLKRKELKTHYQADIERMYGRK
UniProt Q14974: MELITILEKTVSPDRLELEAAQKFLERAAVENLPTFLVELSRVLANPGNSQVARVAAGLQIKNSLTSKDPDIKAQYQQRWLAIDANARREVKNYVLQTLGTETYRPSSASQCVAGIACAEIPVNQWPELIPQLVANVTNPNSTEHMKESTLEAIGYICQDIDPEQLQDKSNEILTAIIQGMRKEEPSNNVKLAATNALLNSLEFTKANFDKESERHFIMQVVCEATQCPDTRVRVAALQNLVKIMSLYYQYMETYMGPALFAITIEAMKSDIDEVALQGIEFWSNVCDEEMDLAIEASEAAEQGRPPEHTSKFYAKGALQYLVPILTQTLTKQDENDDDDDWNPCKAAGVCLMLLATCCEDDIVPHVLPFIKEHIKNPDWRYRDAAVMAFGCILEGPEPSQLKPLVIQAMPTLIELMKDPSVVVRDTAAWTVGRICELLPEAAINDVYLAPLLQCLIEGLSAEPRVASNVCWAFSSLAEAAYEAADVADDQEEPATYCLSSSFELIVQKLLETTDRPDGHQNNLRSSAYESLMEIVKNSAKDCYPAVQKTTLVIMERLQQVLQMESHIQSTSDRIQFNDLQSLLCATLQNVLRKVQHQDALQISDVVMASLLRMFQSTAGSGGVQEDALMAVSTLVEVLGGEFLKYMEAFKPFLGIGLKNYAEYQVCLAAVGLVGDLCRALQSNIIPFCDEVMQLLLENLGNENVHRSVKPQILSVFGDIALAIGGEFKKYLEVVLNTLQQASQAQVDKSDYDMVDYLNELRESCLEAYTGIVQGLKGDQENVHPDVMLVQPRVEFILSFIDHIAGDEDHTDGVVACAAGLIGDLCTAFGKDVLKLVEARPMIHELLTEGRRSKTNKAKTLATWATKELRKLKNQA

T1: CHMP4B-APEX2-mCitrine (UniProt Q9H444)
T1 sequence: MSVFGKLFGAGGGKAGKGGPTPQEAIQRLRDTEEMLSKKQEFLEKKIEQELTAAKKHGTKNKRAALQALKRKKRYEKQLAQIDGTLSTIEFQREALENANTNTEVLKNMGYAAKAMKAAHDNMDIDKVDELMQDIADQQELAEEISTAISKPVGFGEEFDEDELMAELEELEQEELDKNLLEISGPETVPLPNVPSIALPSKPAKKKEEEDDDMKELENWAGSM


Tests used:
[1] = molecular target: T1, CHMP4B-APEX2-mCitrine; test: proximity labelling; APEX2 fusions of LEMD2 or CHMP4B in RPE1 cells after DOX induction of CHMP7^WT (12 h), CHMP7^NLS (6 h) or CHMP7^NES* (3, 6, 9 h); 500 μM biotin-phenol 3 h, 2 mM H2O2 2 min; RIPA lysis, streptavidin magnetic beads, label-free quantitative LC-MS/MS; compared with parental cells without APEX2 fusions
[2] = molecular target: LEMD2-APEX2-mCitrine (UniProt Q8NC56); test: as above

Molecule	binding [1]	binding [2]
Topoisomerase 2B (Top2B) (from UniProt Q02880 1-1626)	binds	binds
acyl-CoA synthetase 3 (ACSL3) (from UniProt O95573 1-720)	binds	binds
USP8 (protein, UniProt P40818 1-1118) MPAVASVPKELYLSSSLKDLNKKTEVKPEKISTKSYVHSALKIFKTAEECRLDRDEERAYVLYMKYVTVYNLIKKRPDFKQQQDYFHSILGPGNIKKAVEEAERLSESLKLRYEEAEVRKKLEEKDRQEEAQRLQQKRQETGREDGGTLAKGSLENVLDSKDKTQKSNGEKNEKCETKEKGAITAKELYTMMTDKNISLIIMDARRMQDYQDSCILHSLSVPEEAISPGVTASWIEAHLPDDSKDTWKKRGNVEYVVLLDWFSSAKDLQIGTTLRSLKDALFKWESKTVLRNEPLVLEGGYENWLLCYPQYTTNAKVTPPPRRQNEEVSISLDFTYPSLEESIPSKPAAQTPPASIEVDENIELISGQNERMGPLNISTPVEPVAASKSDVSPIIQPVPSIKNVPQIDRTKKPAVKLPEEHRIKSESTNHEQQSPQSGKVIPDRSTKPVVFSPTLMLTDEEKARIHAETALLMEKNKQEKELRERQQEEQKEKLRKEEQEQKAKKKQEAEENEITEKQQKAKEEMEKKESEQAKKEDKETSAKRGKEITGVKRQSKSEHETSDAKKSVEDRGKRCPTPEIQKKSTGDVPHTSVTGDSGSGKPFKIKGQPESGILRTGTFREDTDDTERNKAQREPLTRARSEEMGRIVPGLPSGWAKFLDPITGTFRYYHSPTNTVHMYPPEMAPSSAPPSTPPTHKAKPQIPAERDREPSKLKRSYSSPDITQAIQEEEKRKPTVTPTVNRENKPTCYPKAEISRLSASQIRNLNPVFGGSGPALTGLRNLGNTCYMNSILQCLCNAPHLADYFNRNCYQDDINRSNLLGHKGEVAEEFGIIMKALWTGQYRYISPKDFKITIGKINDQFAGYSQQDSQELLLFLMDGLHEDLNKADNRKRYKEENNDHLDDFKAAEHAWQKHKQLNESIIVALFQGQFKSTVQCLTCHKKSRTFEAFMYLSLPLASTSKCTLQDCLRLFSKEEKLTDNNRFYCSHCRARRDSLKKIEIWKLPPVLLVHLKRFSYDGRWKQKLQTSVDFPLENLDLSQYVIGPKNNLKKYNLFSVSNHYGGLDGGHYTAYCKNAARQRWFKFDDHEVSDISVSSVKSSAAYILFYTSLGPRVTDVAT	binds	binds
Calpain 7 (CAPN7) (protein, UniProt Q9Y6W3 1-813) MDATALERDAVQFARLAVQRDHEGRYSEAVFYYKEAAQALIYAEMAGSSLENIQEKITEYLERVQALHSAVQSKSADPLKSKHQLDLERAHFLVTQAFDEDEKENVEDAIELYTEAVDLCLKTSYETADKVLQNKLKQLARQALDRAEALSEPLTKPVGKISSTSVKPKPPPVRAHFPLGANPFLERPQSFISPQSCDAQGQRYTAEEIEVLRTTSKINGIEYVPFMNVDLRERFAYPMPFCDRWGKLPLSPKQKTTFSKWVRPEDLTNNPTMIYTVSSFSIKQTIVSDCSFVASLAISAAYERRFNKKLITGIIYPQNKDGEPEYNPCGKYMVKLHLNGVPRKVIIDDQLPVDHKGELLCSYSNNKSELWVSLIEKAYMKVMGGYDFPGSNSNIDLHALTGWIPERIAMHSDSQTFSKDNSFRMLYQRFHKGDVLITASTGMMTEAEGEKWGLVPTHAYAVLDIREFKGLRFIQLKNPWSHLRWKGRYSENDVKNWTPELQKYLNFDPRTAQKIDNGIFWISWDDLCQYYDVIYLSWNPGLFKESTCIHSTWDAKQGPVKDAYSLANNPQYKLEVQCPQGGAAVWVLLSRHITDKDDFANNREFITMVVYKTDGKKVYYPADPPPYIDGIRINSPHYLTKIKLTTPGTHTFTLVVSQYEKQNTIHYTVRVYSACSFTFSKIPSPYTLSKRINGKWSGQSAGGCGNFQETHKNNPIYQFHIEKTGPLLIELRGPRQYSVGFEVVTVSTLGDPGPHGFLRKSSGDYRCGFCYLELENIPSGIFNIIPSTFLPKQEGPFFLDFNSIIPIKITQLQ	binds	binds
STAMBP/AMSH (protein, UniProt O95630 1-424) MSDHGDVSLPPEDRVRALSQLGSAVEVNEDIPPRRYFRSGVEIIRMASIYSEEGNIEHAFILYNKYITLFIEKLPKHRDYKSAVIPEKKDTVKKLKEIAFPKAEELKAELLKRYTKEYTEYNEEKKKEAEELARNMAIQQELEKEKQRVAQQKQQQLEQEQFHAFEEMIRNQELEKERLKIVQEFGKVDPGLGGPLVPDLEKPSLDVFPTLTVSSIQPSDCHTTVRPAKPPVVDRSLKPGALSNSESIPTIDGLRHVVVPGRLCPQFLQLASANTARGVETCGILCGKLMRNEFTITHVLIPKQSAGSDYCNTENEEELFLIQDQQGLITLGWIHTHPTQTAFLSSVDLHTHCSYQMMLPESVAIVCSPKFQETGFFKLTDHGLEEISSCRQKGFHPHSKDPPLFCSCSHVTVVDRAVTITDLR		binds
CC2D1B (protein, UniProt Q5T0F9 1-858) MMPGPRPRKGPQARGQGVAAAKQMGLFMEFGPEDMLLGMDEAEDDEDLEAELLALTGEAQTTGKKPAPKGQAPLPMAHIEKLAADCMRDVEEEEEEEGLEEDAELLTELQEVLGVDEETEPLDGDEVADPGGSEEENGLEDTEPPVQTAVLTASAPAAQAGASQGLHALLEERIHNYREAAASAKEAGEAAKARRCERGLKTLESQLASVRRGRKINEDEIPPPVALGKRPLAPQEPANRSPETDPPAPPALESDNPSQPETSLPGISAQPVSDLDPDPRALLSSRQREYKVAALSAKRAGELDRARELMRIGKRFGAVLEALEKGQPVDLSAMPPAPEDLKPQQASQAPTAPSVIPPAVERVQPVMAPDVPATPVAPTESQTVLDALQQRLNKYREAGIQARSGGDERKARMHERIAKQYQDAIRAHRAGRKVNFAELPVPPGFPPIPGLESTMGVEEDAVAATLAAAEKLASAEDSAPADKDEDEPPGHLQGEPPAQAPVAKKPARPTVPSSQRLPEPRASSSKESPSPSVREQLALLEARKLQYQRAALQAKRSQDLEQAKAYLRVAKWLEAQIIQARSGRPVDLSKVPSPLTDEEGDFILIHHEDLRLSQKAEEVYAQLQKMLLEQQEKCLLFSKQFMHQGNVAETTRFEKLAQDRKKQLEILQLAQAQGLDPPTHHFELKTFQTVRIFSELNSTEMHLIIVRGMNLPAPPGVTPDDLDAFVRFEFHYPNSDQAQKSKTAVVKNTNSPEFDQLFKLNINRNHRGFKRVIQSKGIKFEIFHKGSFFRSDKLVGTAHLKLERLENECEIREIVEVLDGRKPTGGKLEVKVRLREPLSGQDVQMVTENWLVLEPRGL	binds	binds
Spastin (protein, UniProt Q9UBP0 1-616) MNSPGGRGKKKGSGGASNPVPPRPPPPCLAPAPPAAGPAPPPESPHKRNLYYFSYPLFVGFALLRLVAFHLGLLFVWLCQRFSRALMAAKRSSGAAPAPASASAPAPVPGGEAERVRVFHKQAFEYISIALRIDEDEKAGQKEQAVEWYKKGIEELEKGIAVIVTGQGEQCERARRLQAKMMTNLVMAKDRLQLLEKMQPVLPFSKSQTDVYNDSTNLACRNGHLQSESGAVPKRKDPLTHTSNSLPRSKTVMKTGSAGLSGHHRAPSYSGLSMVSGVKQGSGPAPTTHKGTPKTNRTNKPSTPTTATRKKKDLKNFRNVDSNLANLIMNEIVDNGTAVKFDDIAGQDLAKQALQEIVILPSLRPELFTGLRAPARGLLLFGPPGNGKTMLAKAVAAESNATFFNISAASLTSKYVGEGEKLVRALFAVARELQPSIIFIDEVDSLLCERREGEHDASRRLKTEFLIEFDGVQSAGDDRVLVMGATNRPQELDEAVLRRFIKRVYVSLPNEETRLLLLKNLLCKQGSPLTQKELAQLARMTDGYSGSDLTALAKDAALGPIRELKPEQVKNMSASEMRNIRLSDFTESLKKIKRSVSPQTLEAYIRWNKDFGDTTV		binds

More lines, now with the values ahead:

binding [1]	binding [2]	Molecule
binds	binds	Nesprin-1 (SYNE1) (from UniProt Q8NF91 1-8797)
	binds	KPNB1 (endogenous) (from UniProt Q14974 1-876)
binds		CHMP7^NES* (CHMP7 mutated in its nuclear export signal, doxycycline-inducible) (from UniProt Q8WUX9)
binds		CHMP7^WT (doxycycline-inducible wildtype CHMP7 allele) (protein, UniProt Q8WUX9 1-453) MWSPEREAEAPAGGDPAGLLPPEWEEDEERMSFLFSAFKRSREVNSTDWDSKMGFWAPLVLSHSRRQGVVRLRLRDLQEAFQRKGSVPLGLATVLQDLLRRGELQRESDFMASVDSSWISWGVGVFLLKPLKWTLSNMLGDNKVPAEEVLVAVELLKEKAEEVYRLYQNSPLSSHPVVALSELSTLCANSCPDERTFYLVLLQLQKEKRVTVLEQNGEKIVKFARGPRAKVSPVNDVDVGVYQLMQSEQLLSRKVESLSQEAERCKEEARRACRAGKKQLALRSLKAKQRTEKRIEALHAKLDTVQGILDRIYASQTDQMVFNAYQAGVGALKLSMKDVTVEKAESLVDQIQELCDTQDEVSQTLAGGVTNGLDFDSEELEKELDILLQDTTKEPLDLPDNPRNRHFTNSVPNPRISDAELEAELEKLSLSEGGLVPSSKSPKRQLEPTLKPL
binds	binds	Vaccinia-related kinase 1 (VRK1) (protein, UniProt Q99986 1-396) MPRVKAAQAGRQSSAKRHLAEQFAVGEIITDMAKKEWKVGLPIGQGGFGCIYLADMNSSESVGSDAPCVVKVEPSDNGPLFTELKFYQRAAKPEQIQKWIRTRKLKYLGVPKYWGSGLHDKNGKSYRFMIMDRFGSDLQKIYEANAKRFSRKTVLQLSLRILDILEYIHEHEYVHGDIKASNLLLNYKNPDQVYLVDYGLAYRYCPEGVHKEYKEDPKRCHDGTIEFTSIDAHNGVAPSRRGDLEILGYCMIQWLTGHLPWEDNLKDPKYVRDSKIRYRENIASLMDKCFPEKNKPGEIAKYMETVKLLDYTEKPLYENLRDILLQGLKAIGSKDDGKLDLSVVENGGLKAKTITKKRKKEIEESKEPGVEDTEWSNTQTEEAIQTRSRTRKRVQK
